Results taken from paper PMC11425881.

By UniProt entry, the sequences of proteins in these tests, tags left out.
UniProt P27361: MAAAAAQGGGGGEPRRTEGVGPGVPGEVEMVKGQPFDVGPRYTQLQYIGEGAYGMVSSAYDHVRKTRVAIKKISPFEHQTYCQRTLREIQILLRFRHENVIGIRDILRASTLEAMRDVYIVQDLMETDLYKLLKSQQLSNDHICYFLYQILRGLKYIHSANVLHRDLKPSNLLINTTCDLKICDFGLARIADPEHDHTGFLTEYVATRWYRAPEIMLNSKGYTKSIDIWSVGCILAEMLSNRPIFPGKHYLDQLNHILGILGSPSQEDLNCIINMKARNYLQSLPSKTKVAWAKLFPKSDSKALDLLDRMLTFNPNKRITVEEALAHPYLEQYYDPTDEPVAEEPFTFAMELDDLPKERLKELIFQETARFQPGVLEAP
UniProt P11142: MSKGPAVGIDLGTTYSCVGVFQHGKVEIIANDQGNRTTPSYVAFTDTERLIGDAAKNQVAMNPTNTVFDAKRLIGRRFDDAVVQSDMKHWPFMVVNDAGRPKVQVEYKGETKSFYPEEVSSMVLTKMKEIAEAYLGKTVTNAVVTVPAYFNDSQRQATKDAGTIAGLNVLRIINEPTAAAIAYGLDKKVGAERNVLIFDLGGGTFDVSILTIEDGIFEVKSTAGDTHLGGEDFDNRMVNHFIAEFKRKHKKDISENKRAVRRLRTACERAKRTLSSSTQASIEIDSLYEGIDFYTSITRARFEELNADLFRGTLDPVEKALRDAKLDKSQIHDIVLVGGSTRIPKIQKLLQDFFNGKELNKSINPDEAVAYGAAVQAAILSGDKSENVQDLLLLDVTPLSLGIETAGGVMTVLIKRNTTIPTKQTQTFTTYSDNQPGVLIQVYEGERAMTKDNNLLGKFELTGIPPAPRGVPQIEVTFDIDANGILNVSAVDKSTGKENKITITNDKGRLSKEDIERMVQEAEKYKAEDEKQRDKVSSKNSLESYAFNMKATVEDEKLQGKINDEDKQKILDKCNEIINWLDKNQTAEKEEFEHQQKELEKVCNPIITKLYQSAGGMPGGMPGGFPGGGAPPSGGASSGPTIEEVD
UniProt Q9UNE7: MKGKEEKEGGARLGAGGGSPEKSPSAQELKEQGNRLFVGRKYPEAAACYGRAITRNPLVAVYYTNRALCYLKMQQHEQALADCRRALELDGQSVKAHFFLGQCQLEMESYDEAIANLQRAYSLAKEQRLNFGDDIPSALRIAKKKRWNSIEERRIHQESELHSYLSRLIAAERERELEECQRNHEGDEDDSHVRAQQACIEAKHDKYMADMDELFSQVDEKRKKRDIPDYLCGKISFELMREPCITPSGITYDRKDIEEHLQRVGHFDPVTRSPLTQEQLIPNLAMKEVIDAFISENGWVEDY

How the values were obtained:
Assay in all cases: affinity purification with mass spectrometry; tagged bait (Flag-PAQR9, Myc-PAQR9 or Myc-PPM1α) expressed in HepG2 cells; proteins collected by co-IP, run on SDS-PAGE, digested and analysed by LC-MS
[1] = target: T1, Myc-tagged PPM1α, expressed in HepG2 cells (human (cDNA of HepG2 cells)) (UniProt P35813)
T1 sequence: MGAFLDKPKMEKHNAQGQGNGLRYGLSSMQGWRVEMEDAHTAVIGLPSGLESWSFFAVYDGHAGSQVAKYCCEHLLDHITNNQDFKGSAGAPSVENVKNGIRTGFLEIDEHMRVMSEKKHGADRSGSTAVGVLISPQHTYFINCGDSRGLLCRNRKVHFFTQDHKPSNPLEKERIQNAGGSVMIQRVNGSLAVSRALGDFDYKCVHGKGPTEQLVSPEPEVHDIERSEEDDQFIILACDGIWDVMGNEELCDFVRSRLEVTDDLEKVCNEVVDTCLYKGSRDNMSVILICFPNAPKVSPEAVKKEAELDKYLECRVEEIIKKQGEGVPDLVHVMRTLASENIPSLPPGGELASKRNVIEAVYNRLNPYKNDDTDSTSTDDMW

[2] = target: T2, Myc-tagged PAQR9 (progesterone and adiponectin receptor 9), expressed in HepG2 cells (UniProt Q6ZVX9)
T2 sequence: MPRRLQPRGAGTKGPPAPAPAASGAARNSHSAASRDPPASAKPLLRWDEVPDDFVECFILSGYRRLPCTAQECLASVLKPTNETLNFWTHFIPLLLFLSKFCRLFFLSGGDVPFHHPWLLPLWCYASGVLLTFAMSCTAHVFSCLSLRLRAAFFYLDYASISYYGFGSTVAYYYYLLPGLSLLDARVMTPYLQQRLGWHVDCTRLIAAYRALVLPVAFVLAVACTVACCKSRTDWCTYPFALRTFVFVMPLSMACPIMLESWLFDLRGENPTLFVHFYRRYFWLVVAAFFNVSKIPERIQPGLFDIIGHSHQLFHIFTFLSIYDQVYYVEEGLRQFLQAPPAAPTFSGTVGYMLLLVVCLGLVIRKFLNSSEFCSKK

[3] = target: T3, Flag-tagged PAQR9 (progesterone and adiponectin receptor 9), expressed in HepG2 cells (UniProt Q6ZVX9)
T3 sequence: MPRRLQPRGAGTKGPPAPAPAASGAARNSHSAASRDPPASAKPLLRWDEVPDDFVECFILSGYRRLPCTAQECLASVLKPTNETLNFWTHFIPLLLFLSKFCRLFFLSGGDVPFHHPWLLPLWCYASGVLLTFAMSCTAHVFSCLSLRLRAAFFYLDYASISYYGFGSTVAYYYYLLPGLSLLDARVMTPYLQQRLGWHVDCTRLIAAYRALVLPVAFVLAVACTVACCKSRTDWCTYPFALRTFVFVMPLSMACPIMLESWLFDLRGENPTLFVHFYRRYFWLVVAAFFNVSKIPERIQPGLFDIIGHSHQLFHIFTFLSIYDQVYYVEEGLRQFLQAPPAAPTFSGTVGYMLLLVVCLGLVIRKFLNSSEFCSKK

[4] = target: T2, Myc-tagged PAQR9 (progesterone and adiponectin receptor 9), expressed in HepG2 cells; remark: listed apart in the source
[5] = target: T3, Flag-tagged PAQR9 (progesterone and adiponectin receptor 9), expressed in HepG2 cells; remark: listed apart in the source

| Molecule | binding [1] | binding [2] | binding [3] | binding [4] | binding [5] |
| --- | --- | --- | --- | --- | --- |
| ERK1, endogenous in HepG2 cells (from UniProt P27361 1-379) (enzyme) | binds |  |  |  |  |
| HSPA8, endogenous in HepG2 cells (from UniProt P11142 1-646) | binds | binds | binds |  |  |
| STIP1 homology and U-box containing protein 1 (STUB1), endogenous in HepG2 cells (from UniProt Q9UNE7 1-303) (enzyme) | binds | binds | binds |  |  |
| endogenous PPM1α (protein phosphatase, Mg2+/Mn2+ dependent 1) of HepG2 cells (enzyme, UniProt P35813 1-382) MGAFLDKPKMEKHNAQGQGNGLRYGLSSMQGWRVEMEDAHTAVIGLPSGLESWSFFAVYDGHAGSQVAKYCCEHLLDHITNNQDFKGSAGAPSVENVKNGIRTGFLEIDEHMRVMSEKKHGADRSGSTAVGVLISPQHTYFINCGDSRGLLCRNRKVHFFTQDHKPSNPLEKERIQNAGGSVMIQRVNGSLAVSRALGDFDYKCVHGKGPTEQLVSPEPEVHDIERSEEDDQFIILACDGIWDVMGNEELCDFVRSRLEVTDDLEKVCNEVVDTCLYKGSRDNMSVILICFPNAPKVSPEAVKKEAELDKYLECRVEEIIKKQGEGVPDLVHVMRTLASENIPSLPPGGELASKRNVIEAVYNRLNPYKNDDTDSTSTDDMW |  |  |  | binds | binds |

Where two headings read alike, the source gives them in different places. Results are given in words; binding and its absence hold for the method and conditions named. In cells and extracts the contact can be indirect. Here binding means that the protein was enriched with, or labelled near, the bait; the list need not be complete. Tags and fused reporters may be left off the sequences shown.
